These results are taken from patent US20210009993A1 (ROCHE DIAGNOSTICS OPERATIONS, published 2021).

Assay [1] deals with T1, human cardiac troponin T (cTnT) (human, UniProt P45379 2-298).
T1 construct: also called Recombinant human TnT (Roche, 37 kDa)
The assay can be described thus: Elecsys ECL sandwich immunoassay; ruthenylated IgG as detection antibody, Calibrator 1 against blank.

Assay [2] deals with T1, human cardiac troponin T (cTnT). The assay can be described thus: Elecsys ECL sandwich immunoassay; ruthenylated IgG as detection antibody, cTnT calibrators against blank.
The target is the same in assay [3]. The assay can be described thus: Elecsys sandwich ECL immunoassay (Troponin T hs protocol, Cobas E170). Ruthenylated IgG is the detection antibody, with a biotinylated capture antibody on streptavidin beads. Calibrator 1 of the cTnT assay against a Diluent Multi Assay blank.
The target is the same in assay [4]. The assay can be described thus: SPR (Biacore), Table 3. For orientation: SPR reads the build-up and loss of mass on a sensor chip optically.

Numbering of substitutions follows the chain as printed. Names may count otherwise. These are yes or no findings as the source states them, for the method shown. Some entries that bind do so weakly or less than the wild type.

B1: full length murine/human chimeric anti-cTnT antibody comprising the mutations of combination 12 (Y34I, F60W, Y104F), ruthenium conjugate (antibody, V domains shown)
VH: EVQLQQSGPELVKPGASVKMSCKASGYTFTDYIMKWVKQSHGKSLEWIGDINPNNGETWYNQKFKDKATLTVDKSSSTAYMQLNSLTSEDSAVYYCATRVFDFWGQGTTLTVSS
VL: DIVLTQSPASLAVSLGQRATISCKASQSVDYDGTSYMNWFQQKAGQPPKRLIYAASNLESGIPARFSGRGSGTDFALNIHPVEEEDAATYYCQQSNEDPYTFGGGTKLEIKR
For B1, the binding result in assay [1], in assay [2] and in assay [3] was “binds” in each case.

B2: anti-cTnT Fab fragment, CDR combination 12 (Y34I, F60W, Y104F) (Fab, V domains shown)
VH: B1 VH
VL: B1 VL
Turning to B2, the binding result in assay [4] is recorded as “binds”.

B3: full length murine/human chimeric anti-cTnT antibody comprising the mutations of combination 11 (Y34I, F60W, V101Y), ruthenium conjugate (antibody, V domains shown)
VH: B1 VH with V100Y, F103Y
VL: B1 VL
On to B3, for which the binding entry in assay [2] was “binds”.
